At least one structure is not confirmed: it was looked up by name or label, or the drawing left a doubt.
Tested on: V-src kinase
Test: V-src kinase assay
Format: biochemical
Settings: at 50 μM
Experimental: V-src and C-src Kinase Assays
V-src or C-src kinase is purified from baculovirus infected insect cell lysates using an antipeptide monoclonal antibody directed against the N-terminal 2-17 amino acids. The antibody, covalently linked to 0.65-μm latex beads, is added to a suspension of insect cell lysis buffer comprised of 150 mM NaCl, 50 mM Tris pH 7.5, 1 mM DTT, 1% NP-40, 2 mM EGTA, 1 mM sodium vanadate, 1 mM PMSF, 1 μg/mL each of leupeptin, pepstatin, and aprotinin. Insect cell lysate containing either the c-src or v-src protein is incubated with these beads for 3-4 hours at 4° C. with rotation. At the end of the lysate incubation, the beads are rinsed 3 times in lysis buffer, resuspended in lysis buffer containing 10% glycerol, and frozen. These latex beads are thawed, rinsed three times in assay buffer which is comprised of 40 mM tris pH 7.5, 5 mM MgCl2, and suspended in the same buffer. In a Millipore 96-well plate with a 0.65 μm polyvinylidine membrane bottom are added the reaction components: 10-μL v-src or c-src beads, 10 μL of 2.5 mg/mL poly GluTyr substrate, 5 μM ATP containing 0.2 μCi labeled ^32 P-ATP, 5μL DMSO containing inhibitors or as a solvent control, and buffer to make the final volume 125 μL. […] The filters are punched, counted in a liquid scintillation counter, and the data examined for inhibitory activity in comparison to a known inhibitor such as erbstatin. […]

Row | SMILES | Inhibition of Protein Tyrosine Kinases, V-src, % Inhibition
1 | CC(C)(C)NC(=O)Nc1ncc2cc(-c3c(Cl)cccc3Cl)c(NC(=O)NC(C)(C)C)nc2n1 [Example 2, 1-tert-Butyl-3-[7-(3-tert-butylureido)-6-(2,6-dichlorophenyl)-pyrido[2,3-d]pyrimidin-2-yl]urea] | 27.4%
2 | Nc1ncc2cc(-c3c(Cl)cccc3Cl)c(NC3=NCCO3)nc2n1 [Example 24, 2-[2-Amino-6-(2,6-dichlorophenyl)-pyrido[2,3-d]pyrimidin-7-yl]-amino-4,5-dihydro-oxazole] | 15.6%
